Assay results: article doi:10.1101/2024.07.09.602740

Target: GFP-tagged SehA toxin (Salmonella enterica HigB-like toxin A), wild type (Salmonella enterica serovar Typhimurium 14028s)
Assay: pull-down

His-tagged dsRNA-binding domain (dsRBD) of RNase III (155-227 aa) (from UniProt Q56056 155-226) (domain or fragment)
binding: binds

B1: His-tagged ribonuclease III (RNase III) of Salmonella (enzyme, UniProt Q56056 1-226)
chain: MNPIVINRLQRKLGYTFNHQELLQQALTHRSASSKHNERLEFLGDSILSFVIANALYHRFPRVDEGDMSRMRATLVRGNTLAELAREFDLGECLRLGPGELKSGGFRRESILADTVEALIGGVFLDSNIQTVEQLILNWYKTRLDEISPGDKQKDPKTRLQEYLQGRHLPLPSYLVVQVRGEAHDQEFTIHCQVSGLSEPVVGTGSSRRKAEQAAAEQALKKLELE
binding: binds

No constants are given. Whether binding was seen depends on the method and setting. A result given as binding can be weak or reduced; the word gives no strength. Where a sequence is shown, tags or fusion partners need not be part of it.
